# Laboratory results taken from PMC12156041, “Design, Synthesis and Antiplasmodial Activities of a Library of Fluorine-Based 3-Benzylmenadiones” (Molecules, 2025).
# Test system: P. berghei (GFP ANKA malaria strain)
# Test: In vitro efficacy testing with P. berghei, 24 h (species shift assay)
# Type: cell-based
# Details: 24 h assays
row,Structure (SMILES),Species Shift Pf versus Pb
1,"CC1=C(Cc2ccc(F)c(C(F)(F)F)c2)C(=O)c2ccccc2C1=O [A-b-9, 4′-fluoro-3′-trifluoromethyl-benzylmenadione]",1.0
2,CC1=C(Cc2c(F)c(F)c(F)c(F)c2F)C(=O)c2ccccc2C1=O [A-b-47],1.4
3,"CCN(CC)CCCC(C)Nc1ccnc2cc(Cl)ccc12 (centres unmarked) [CQ, reference compound]",3.3
4,CC1=C(Cc2ccc(C(F)(F)F)cc2)C(=O)c2cc(F)ccc2C1=O [Cpnd 6-F-PD],1.6
5,CC1=C(Cc2ccc(C(F)(F)F)cc2)C(=O)c2ccc(F)cc2C1=O [Cpnd 7-F-PD],0.9

# Some results come without the dose or concentration used.
